# Laboratory results reported in article PMC5996148.
# Some of the results follow.
# How the values were obtained:
# Assay in all cases: protein microarray (ProtoArray v5.0), streptavidin-Alexa Fluor 647
# Details in all cases: 3'-biotin; 20 mM Tris (pH 7.5), 5 mM MgCl2, 100 mM KCl, 0.1% Tween-20, A/T-rich and random oligonucleotide blockers; temperature not stated; high values mean tight binding
# [1] = system: Leiomodin-1 (human)
# [2] = system: Leptin receptor gene-related protein (human)
# [3] = system: Leucine carboxyl methyltransferase 1 (human)
# [4] = system: Linker for activation of T-cells family member 1 (human)
# [5] = system: Lipoma HMGIC fusion partner-like 4 protein (human)
# [6] = system: LisH domain-containing protein ARMC9 (human)
# [7] = system: Low molecular weight phosphotyrosine protein phosphatase (human)
# [8] = system: Ly6/PLAUR domain-containing protein 5 (human)
# [9] = system: M6PRBP1 (human)
# [10] = system: MAG (human)
sequence,measurement,setting,value
GGTGACAGGGGTATGGGGAGGGG [G4-2 biotinylated (Ct1)],binding signal,[1],6.04 z-score
same,binding signal,[2],-0.378 z-score
same,binding signal,[3],-0.383 z-score
same,binding signal,[4],-0.397 z-score
same,binding signal,[5],-0.374 z-score
same,binding signal,[6],-0.359 z-score
same,binding signal,[7],-0.376 z-score
same,binding signal,[8],-0.385 z-score
same,binding signal,[9],-0.397 z-score
same,binding signal,[10],-0.361 z-score

# 2 neighbouring records already listed, for reference:
sequence,measurement,setting,value
GGTGACAGGGGTATGGGGAGGGG [G4-2 biotinylated (Ct1)],binding signal,[7],-0.376 z-score
same,binding signal,[8],-0.385 z-score
